No constants are given. Whether binding was seen depends on the method and setting. In cells and extracts the contact can be indirect. Some entries that bind do so weakly or less than the wild type.
Experiments:
[1] = molecular target: KMT2F (endogenous) (human (endogenous in HeLa)) (UniProt O15047); assay: co-IP
[2] = molecular target: SFB-tagged RRM (RNA recognition motif) fragment of KMT2F, amino acids 74-172 (UniProt O15047); assay: pull-down
[3] = molecular target: SFB-tagged KMT2F N1646A (catalytic dead mutant) (UniProt O15047); assay: pull-down
[4] = molecular target: SFB-tagged full length KMT2F (UniProt O15047); assay: pull-down

The chains behind the UniProt entries cited, without tags or fusion partners. Where a name states a change or a piece, a line headed by the entry shows the natural chain unless it says otherwise. A line that says so, or that is headed by a name, gives the form on record, which may keep a tag or linker. Residues count along the entry.
UniProt O15047: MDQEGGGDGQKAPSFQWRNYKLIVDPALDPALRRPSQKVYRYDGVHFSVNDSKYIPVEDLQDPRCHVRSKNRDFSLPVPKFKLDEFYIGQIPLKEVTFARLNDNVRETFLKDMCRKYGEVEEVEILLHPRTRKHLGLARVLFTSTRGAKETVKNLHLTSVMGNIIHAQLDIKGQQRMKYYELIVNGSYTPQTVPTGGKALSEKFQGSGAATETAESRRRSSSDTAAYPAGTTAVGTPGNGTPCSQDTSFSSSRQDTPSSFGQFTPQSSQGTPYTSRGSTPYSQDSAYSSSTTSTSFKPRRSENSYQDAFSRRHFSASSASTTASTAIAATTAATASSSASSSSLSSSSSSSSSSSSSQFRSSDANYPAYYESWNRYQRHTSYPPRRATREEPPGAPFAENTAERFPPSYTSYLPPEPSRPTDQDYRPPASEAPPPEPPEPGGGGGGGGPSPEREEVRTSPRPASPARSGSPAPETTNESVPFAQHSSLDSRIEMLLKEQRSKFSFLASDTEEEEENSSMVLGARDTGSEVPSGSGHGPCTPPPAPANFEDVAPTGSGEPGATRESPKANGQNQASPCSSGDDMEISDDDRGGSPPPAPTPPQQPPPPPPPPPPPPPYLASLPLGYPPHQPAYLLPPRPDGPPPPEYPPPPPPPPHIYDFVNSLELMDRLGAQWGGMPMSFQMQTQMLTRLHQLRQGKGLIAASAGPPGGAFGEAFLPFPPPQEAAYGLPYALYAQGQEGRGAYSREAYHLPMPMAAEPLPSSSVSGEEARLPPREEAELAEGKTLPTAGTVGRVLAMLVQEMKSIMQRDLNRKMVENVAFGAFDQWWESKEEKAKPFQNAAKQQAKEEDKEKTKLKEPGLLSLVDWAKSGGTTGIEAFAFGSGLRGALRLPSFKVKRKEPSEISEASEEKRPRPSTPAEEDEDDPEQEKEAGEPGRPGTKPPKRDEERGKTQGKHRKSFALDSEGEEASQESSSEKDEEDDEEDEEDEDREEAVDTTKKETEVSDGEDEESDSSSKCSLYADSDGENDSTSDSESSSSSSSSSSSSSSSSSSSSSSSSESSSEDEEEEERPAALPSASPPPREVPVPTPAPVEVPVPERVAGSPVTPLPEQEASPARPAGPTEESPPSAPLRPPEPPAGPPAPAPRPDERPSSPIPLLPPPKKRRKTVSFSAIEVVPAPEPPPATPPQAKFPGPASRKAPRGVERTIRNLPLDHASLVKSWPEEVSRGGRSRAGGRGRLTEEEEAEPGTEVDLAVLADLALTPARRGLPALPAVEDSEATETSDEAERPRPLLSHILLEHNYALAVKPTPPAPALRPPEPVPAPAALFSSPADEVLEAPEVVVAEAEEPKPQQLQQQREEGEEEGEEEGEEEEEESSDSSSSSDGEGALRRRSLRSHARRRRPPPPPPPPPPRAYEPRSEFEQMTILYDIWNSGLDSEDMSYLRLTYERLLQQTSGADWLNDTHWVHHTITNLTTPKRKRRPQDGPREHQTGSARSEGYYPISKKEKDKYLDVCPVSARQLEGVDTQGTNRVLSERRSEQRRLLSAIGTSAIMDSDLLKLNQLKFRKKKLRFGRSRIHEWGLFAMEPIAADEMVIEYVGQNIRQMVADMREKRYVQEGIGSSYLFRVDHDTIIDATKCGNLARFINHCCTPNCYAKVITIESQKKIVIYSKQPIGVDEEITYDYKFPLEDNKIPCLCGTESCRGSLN
SFB-tagged RRM (RNA recognition motif) fragment of KMT2F, amino acids 74-172: residues 74-172 of O15047
UniProt Q9NYV6: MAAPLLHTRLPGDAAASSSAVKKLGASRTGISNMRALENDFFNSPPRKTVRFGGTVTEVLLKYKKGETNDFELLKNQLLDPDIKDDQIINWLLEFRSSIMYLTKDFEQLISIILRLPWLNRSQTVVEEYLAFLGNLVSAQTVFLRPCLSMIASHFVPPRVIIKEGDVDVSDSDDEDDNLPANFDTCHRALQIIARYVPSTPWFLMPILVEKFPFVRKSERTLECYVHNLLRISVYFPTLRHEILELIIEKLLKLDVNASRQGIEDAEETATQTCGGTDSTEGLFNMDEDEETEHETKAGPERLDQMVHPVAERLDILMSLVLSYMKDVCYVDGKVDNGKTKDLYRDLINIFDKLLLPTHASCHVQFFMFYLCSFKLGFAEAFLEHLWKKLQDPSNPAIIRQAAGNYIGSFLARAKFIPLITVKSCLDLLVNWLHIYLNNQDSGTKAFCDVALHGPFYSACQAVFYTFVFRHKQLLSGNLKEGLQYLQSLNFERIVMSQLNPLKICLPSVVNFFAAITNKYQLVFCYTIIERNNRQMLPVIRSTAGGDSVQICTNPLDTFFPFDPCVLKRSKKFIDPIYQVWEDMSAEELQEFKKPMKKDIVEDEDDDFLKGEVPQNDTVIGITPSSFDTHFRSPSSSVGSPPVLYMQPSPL

Measured: binding

RRN3 (endogenous) (from UniProt Q9NYV6 1-651)
binds: all assays above
